In the supplement of paper PMC10849652:
The other results are listed elsewhere or left out.

Protein sequences, listed by entry. Tags and fused reporters are not part of them. Lines headed by an entry give the natural chain unless they say otherwise; changes in a name come on top.
UniProt Q86TA1: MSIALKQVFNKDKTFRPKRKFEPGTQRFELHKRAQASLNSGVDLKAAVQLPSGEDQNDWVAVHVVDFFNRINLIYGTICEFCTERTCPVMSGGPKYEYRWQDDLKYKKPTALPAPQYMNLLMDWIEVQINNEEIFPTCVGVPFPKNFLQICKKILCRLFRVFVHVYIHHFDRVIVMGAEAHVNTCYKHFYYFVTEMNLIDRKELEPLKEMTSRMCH
UniProt Q7Z3U7: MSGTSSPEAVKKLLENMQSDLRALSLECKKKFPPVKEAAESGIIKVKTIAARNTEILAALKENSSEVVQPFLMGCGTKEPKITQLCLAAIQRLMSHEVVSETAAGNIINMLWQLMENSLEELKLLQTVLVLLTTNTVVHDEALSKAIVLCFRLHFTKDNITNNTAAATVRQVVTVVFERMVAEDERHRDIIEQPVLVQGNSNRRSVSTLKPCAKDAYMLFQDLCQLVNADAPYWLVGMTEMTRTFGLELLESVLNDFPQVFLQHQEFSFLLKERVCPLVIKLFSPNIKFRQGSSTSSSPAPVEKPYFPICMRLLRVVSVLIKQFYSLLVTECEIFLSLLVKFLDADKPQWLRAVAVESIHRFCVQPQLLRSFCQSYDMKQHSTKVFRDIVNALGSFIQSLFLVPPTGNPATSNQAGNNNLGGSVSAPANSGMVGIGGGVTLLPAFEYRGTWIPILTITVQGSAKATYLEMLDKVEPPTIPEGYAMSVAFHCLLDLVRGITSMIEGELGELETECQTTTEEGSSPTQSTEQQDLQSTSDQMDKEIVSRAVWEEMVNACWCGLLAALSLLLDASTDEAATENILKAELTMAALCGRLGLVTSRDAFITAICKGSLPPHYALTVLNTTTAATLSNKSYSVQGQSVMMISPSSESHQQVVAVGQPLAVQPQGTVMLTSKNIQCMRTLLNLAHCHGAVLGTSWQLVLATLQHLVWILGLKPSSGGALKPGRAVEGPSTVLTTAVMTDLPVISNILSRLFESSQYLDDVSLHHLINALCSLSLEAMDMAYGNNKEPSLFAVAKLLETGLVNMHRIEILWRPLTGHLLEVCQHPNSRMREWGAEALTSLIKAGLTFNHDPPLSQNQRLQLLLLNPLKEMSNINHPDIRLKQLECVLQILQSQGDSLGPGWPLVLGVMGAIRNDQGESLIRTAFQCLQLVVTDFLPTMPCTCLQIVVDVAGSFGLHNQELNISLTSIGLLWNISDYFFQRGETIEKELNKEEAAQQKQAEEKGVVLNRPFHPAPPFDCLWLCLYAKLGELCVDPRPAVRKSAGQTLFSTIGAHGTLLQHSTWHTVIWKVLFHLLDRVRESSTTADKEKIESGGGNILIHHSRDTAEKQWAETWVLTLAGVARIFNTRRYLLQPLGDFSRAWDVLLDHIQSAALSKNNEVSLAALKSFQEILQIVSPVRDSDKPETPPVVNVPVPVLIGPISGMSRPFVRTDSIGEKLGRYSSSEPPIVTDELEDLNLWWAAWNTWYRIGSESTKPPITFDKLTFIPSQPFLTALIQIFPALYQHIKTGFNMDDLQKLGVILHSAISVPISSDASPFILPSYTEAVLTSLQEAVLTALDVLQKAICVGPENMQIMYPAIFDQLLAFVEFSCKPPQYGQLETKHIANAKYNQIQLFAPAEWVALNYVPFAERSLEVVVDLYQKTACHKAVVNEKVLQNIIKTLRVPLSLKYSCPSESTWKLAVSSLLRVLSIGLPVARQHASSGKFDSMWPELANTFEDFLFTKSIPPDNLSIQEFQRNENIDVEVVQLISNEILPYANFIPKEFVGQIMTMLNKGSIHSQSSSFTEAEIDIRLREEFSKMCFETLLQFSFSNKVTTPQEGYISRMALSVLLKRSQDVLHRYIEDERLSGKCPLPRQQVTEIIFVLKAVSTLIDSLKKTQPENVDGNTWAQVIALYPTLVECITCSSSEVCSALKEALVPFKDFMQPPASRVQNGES
UniProt Q99797: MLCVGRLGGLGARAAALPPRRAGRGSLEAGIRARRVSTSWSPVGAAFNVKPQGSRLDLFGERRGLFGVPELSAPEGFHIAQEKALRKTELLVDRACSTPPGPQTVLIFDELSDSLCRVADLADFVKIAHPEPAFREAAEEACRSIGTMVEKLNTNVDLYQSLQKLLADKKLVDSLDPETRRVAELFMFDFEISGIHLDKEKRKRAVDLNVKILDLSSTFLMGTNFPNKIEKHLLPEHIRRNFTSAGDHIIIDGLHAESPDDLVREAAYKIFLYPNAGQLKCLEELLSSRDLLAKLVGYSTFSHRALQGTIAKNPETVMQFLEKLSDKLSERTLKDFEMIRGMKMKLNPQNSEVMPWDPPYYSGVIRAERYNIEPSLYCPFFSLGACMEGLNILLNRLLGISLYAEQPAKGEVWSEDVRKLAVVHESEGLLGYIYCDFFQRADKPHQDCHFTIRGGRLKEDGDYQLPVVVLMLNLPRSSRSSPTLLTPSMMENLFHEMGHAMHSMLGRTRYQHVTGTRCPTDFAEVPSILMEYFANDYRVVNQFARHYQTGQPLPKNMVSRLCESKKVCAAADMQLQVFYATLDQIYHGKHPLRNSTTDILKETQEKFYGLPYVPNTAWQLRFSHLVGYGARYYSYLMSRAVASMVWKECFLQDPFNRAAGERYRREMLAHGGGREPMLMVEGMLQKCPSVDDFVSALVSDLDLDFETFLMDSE
UniProt Q9H000: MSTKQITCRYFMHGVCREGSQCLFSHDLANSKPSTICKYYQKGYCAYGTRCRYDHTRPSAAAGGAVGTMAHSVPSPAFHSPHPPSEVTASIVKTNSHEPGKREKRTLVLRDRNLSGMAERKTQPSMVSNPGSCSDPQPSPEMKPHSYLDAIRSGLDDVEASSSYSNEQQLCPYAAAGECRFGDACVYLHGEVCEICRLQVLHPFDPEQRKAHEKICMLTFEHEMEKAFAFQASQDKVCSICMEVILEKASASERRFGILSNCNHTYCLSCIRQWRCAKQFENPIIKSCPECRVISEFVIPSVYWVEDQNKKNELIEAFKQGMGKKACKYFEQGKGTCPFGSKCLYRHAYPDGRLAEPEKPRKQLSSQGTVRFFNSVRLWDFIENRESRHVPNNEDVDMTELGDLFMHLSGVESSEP
UniProt Q9Y3A3: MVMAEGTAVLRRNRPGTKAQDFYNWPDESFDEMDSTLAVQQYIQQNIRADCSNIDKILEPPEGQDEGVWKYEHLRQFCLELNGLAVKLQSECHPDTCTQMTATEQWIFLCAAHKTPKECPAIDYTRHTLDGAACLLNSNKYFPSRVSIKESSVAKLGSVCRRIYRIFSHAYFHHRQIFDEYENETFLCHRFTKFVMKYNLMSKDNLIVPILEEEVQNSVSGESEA
UniProt Q567V2: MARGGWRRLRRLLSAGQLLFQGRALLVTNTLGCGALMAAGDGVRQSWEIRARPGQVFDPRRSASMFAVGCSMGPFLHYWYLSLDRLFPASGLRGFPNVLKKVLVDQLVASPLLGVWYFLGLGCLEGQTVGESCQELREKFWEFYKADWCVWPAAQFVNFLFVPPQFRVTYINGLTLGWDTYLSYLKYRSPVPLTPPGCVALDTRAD
UniProt Q13724: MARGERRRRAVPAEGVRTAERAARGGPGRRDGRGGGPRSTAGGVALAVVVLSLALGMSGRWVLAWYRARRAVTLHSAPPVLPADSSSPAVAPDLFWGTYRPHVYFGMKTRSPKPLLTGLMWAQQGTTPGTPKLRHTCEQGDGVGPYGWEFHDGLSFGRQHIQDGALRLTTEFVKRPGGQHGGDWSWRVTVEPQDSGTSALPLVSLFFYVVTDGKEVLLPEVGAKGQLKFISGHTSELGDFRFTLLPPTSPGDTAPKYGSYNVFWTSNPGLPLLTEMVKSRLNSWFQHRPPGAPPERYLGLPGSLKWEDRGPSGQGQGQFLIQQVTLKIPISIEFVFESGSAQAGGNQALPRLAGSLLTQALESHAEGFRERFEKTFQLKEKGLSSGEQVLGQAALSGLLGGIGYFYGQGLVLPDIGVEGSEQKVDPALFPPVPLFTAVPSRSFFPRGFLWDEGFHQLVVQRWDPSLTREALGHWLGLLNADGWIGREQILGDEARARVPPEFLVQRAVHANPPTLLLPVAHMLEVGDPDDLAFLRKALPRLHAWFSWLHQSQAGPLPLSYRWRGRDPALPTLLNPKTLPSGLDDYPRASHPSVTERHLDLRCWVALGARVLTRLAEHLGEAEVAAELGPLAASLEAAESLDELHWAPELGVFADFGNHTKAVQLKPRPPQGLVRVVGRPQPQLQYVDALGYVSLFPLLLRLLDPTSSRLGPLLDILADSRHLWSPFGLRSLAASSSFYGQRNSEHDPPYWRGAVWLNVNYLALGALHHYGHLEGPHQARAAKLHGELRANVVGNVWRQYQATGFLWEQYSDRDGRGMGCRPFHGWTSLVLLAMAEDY
UniProt Q9HCE1: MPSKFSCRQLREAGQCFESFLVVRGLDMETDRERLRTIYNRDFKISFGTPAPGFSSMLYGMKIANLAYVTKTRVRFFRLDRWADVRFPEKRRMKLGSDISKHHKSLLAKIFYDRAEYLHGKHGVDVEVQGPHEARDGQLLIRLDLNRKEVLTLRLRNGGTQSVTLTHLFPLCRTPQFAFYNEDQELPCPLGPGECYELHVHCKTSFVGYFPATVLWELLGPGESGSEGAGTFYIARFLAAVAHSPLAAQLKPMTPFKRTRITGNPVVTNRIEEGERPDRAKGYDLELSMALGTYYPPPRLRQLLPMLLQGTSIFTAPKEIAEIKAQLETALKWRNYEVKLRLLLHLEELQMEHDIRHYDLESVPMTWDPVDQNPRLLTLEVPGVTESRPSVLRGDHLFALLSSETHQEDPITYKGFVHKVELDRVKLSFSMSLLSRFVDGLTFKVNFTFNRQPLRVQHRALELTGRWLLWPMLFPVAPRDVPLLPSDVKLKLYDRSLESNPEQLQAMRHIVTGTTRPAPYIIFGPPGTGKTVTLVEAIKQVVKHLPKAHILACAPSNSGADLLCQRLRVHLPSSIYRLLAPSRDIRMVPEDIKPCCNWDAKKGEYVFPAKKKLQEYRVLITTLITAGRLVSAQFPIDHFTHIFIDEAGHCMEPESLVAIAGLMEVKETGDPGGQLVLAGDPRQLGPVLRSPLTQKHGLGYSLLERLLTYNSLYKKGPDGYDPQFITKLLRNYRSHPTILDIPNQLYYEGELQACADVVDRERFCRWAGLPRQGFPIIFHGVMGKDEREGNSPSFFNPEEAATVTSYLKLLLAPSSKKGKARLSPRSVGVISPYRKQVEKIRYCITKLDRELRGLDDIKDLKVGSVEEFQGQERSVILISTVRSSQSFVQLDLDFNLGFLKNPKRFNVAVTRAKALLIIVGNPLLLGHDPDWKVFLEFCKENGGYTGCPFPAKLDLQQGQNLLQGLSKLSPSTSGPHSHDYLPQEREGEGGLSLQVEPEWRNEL
UniProt P34949: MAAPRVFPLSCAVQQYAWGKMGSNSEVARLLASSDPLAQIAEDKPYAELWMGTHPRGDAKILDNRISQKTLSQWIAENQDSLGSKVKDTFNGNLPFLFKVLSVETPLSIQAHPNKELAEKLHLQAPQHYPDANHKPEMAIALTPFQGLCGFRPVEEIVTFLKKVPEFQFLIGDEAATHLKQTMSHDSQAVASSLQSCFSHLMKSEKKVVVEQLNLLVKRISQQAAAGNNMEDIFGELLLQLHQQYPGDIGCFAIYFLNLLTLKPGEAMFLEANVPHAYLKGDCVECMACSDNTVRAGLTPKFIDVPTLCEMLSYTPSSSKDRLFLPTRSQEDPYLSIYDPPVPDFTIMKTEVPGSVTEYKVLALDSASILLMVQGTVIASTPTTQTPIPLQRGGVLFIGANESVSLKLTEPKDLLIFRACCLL
UniProt Q9UH92: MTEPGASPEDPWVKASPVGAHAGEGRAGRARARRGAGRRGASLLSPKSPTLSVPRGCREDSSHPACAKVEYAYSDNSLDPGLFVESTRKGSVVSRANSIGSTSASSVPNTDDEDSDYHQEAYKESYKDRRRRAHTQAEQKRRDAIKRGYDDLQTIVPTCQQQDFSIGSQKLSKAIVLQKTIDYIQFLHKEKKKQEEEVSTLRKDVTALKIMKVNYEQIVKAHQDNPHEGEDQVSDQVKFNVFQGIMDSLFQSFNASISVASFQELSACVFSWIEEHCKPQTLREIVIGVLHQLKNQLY
UniProt O95822: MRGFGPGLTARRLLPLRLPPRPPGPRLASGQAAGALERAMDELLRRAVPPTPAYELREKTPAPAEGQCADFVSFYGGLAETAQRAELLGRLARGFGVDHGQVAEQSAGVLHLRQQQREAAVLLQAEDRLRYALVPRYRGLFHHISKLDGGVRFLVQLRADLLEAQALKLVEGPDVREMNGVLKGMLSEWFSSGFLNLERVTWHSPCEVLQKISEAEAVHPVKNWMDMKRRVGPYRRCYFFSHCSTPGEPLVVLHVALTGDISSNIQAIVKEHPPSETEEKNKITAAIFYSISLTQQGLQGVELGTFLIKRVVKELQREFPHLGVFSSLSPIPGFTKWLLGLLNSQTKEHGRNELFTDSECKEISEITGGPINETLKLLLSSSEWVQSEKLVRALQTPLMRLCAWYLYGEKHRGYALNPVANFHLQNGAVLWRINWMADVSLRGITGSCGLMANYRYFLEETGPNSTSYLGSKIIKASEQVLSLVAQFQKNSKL

Columns and labels:
Test in all cases: log2 fold change, soluble protein after heating vs DMSO (PISA); higher = thermal stabilisation; K562 cells, 10 uM, 30 min; active = over 0.2 and 3.5 SD of the protein, either way, in both replicates (recomputed)
[1] = compound: C1=CC=C(C=C1)[C@H](COC2=CC3=C(C=C2)NC(=O)N3)NC(=O)C4=CC=CN(C4=O)CC5=CC(=C(C=C5)F)F
In short: (§1)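 Thermal stability values are relative to control samples and come from duplicates. They are expressed as log2 fold changes. For measurement, K562 cells (2×10^6 cells/mL) received 10 μM compound for 30 min, and aliquots were heated for 3 min over 48°C-58°C, pooled, and extracted at 4°C in PBS with 0.5% NP-40. Soluble protein, the supernatant after 21,000xg for 90 min, was quantified by TMTpro 16plex LC-MS/MS with equalised channel sums.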

[2] = compound: CC1=C(SC2=C1C(=N[C@H](C3=NN=C(N32)C)CC(=O)N)C4=CC=C(C=C4)Cl)C
In short: as §1

[3] = compound: CC1=C2C(=CC=C1)N=C(N(C2=O)C3=CC=CC=C3C)CN4C=NC5=C(N=CN=C54)N
In short: as §1

[4] = compound: Cc1sc2c(c1C)C(c1ccc(Cl)cc1)=N[C@@H](CC(=O)OC(C)(C)C)c1nnc(C)n1-2
In short: as §1

[5] = compound: c1ccc([C@@H]2C[C@H]2NC2CCNCC2)cc1
In short: as §1

Measured: log2 fold change

MOB3B (UniProt Q86TA1)
inactive: [1] 0 | [2] 0.029 | [3] 0.178 | [4] 0.041 | [5] -0.088

MRPL28 (UniProt Q13084)
inactive: [1] 0.015 | [2] -0.192 | [3] -0.084 | [4] 0.004 | [5] -0.078

MON2 isoform 5 (UniProt Q7Z3U7)
inactive: [1] -0.023 | [2] 0.016 | [3] 0.109 | [4] -0.025 | [5] -0.073

MKKS (UniProt Q9HB66)
inactive: [1] 0.061 | [2] 0.006 | [3] -0.114 | [4] -0.059 | [5] 0.014

MIEN1 (UniProt Q9BRT3)
inactive: [1] 0.035 | [2] 0.101 | [3] 0.014 | [4] -0.097 | [5] 0.019

MND1 (UniProt Q9BWT6)
inactive: [1] 0.009 | [2] 0.012 | [3] 0.081 | [4] 0.088 | [5] 0.102

MRPL34 (UniProt Q9BQ48)
inactive: [1] 0 | [2] -0.154 | [3] -0.073 | [4] 0.058 | [5] -0.051

MPHOSPH6 (UniProt Q99547)
inactive: [1] 0.095 | [2] -0.083 | [3] 0.097 | [4] 0.08 | [5] -0.002

MRPL45 (UniProt Q9BRJ2)
inactive: [1] 0.051 | [2] -0.007 | [3] 0 | [4] 0.065 | [5] -0.098

MIPEP (UniProt Q99797)
inactive: [1] -0.011 | [2] 0.06 | [3] 0.113 | [4] -0.004 | [5] -0.02

MKRN2 (UniProt Q9H000)
inactive: [1] 0.029 | [2] 0.046 | [3] 0.143 | [4] 0.122 | [5] -0.017

MOB4 (UniProt Q9Y3A3)
inactive: [1] -0.025 | [2] -0.014 | [3] 0.089 | [4] -0.002 | [5] 0.058

MICB, A0A140T979
inactive: [1] 0 | [2] 0.041 | [3] -0.05 | [4] 0.026 | [5] -0.049

MPV17L2 (UniProt Q567V2)
inactive: [1] -0.02 | [2] 0.019 | [3] 0.022 | [4] -0.108 | [5] 0.068

MRPL48 (UniProt Q96GC5)
inactive: [1] -0.023 | [2] -0.094 | [3] -0.134 | [4] 0.08 | [5] 0.026

MRPL22 (UniProt Q9NWU5)
inactive: [1] -0.04 | [2] -0.062 | [3] -0.106 | [4] 0.01 | [5] -0.078

MPP6 (UniProt Q9NZW5)
inactive: [1] -0.041 | [2] 0.07 | [3] 0.077 | [4] 0.03 | [5] 0.019

MRPL2 (UniProt Q5T653)
inactive: [1] 0.014 | [2] -0.12 | [3] -0.089 | [4] 0.031 | [5] -0.026

MRPL47 (UniProt Q9HD33)
inactive: [1] 0.042 | [2] -0.108 | [3] -0.131 | [4] 0.087 | [5] -0.01

MOGS (UniProt Q13724)
inactive: [1] 0.053 | [2] 0 | [3] 0.033 | [4] -0.011 | [5] -0.01

MLXIP (UniProt Q9HAP2)
inactive: [1] -0.202 | [2] 0.033 | [3] 0.282 | [4] -0.044 | [5] -0.392

MOV10 (UniProt Q9HCE1)
inactive: [1] 0.067 | [2] -0.095 | [3] -0.095 | [4] 0.145 | [5] 0.057

MRFAP1 (UniProt Q9Y605)
inactive: [1] 0.009 | [2] 0.109 | [3] -0.043 | [4] 0.031 | [5] -0.017

MPI (UniProt P34949)
inactive: [1] -0.005 | [2] 0.04 | [3] 0.017 | [4] 0.015 | [5] 0.062

MRPL4 (UniProt Q9BYD3)
inactive: [1] 0.053 | [2] -0.057 | [3] -0.099 | [4] 0.097 | [5] -0.035

2 records picked at random from those above:
MOV10 (UniProt Q9HCE1)
inactive: [1] 0.067 | [2] -0.095 | [3] -0.095 | [4] 0.145 | [5] 0.057

MRPL4 (UniProt Q9BYD3)
inactive: [1] 0.053 | [2] -0.057 | [3] -0.099 | [4] 0.097 | [5] -0.035

The listing continues.

MLX (UniProt Q9UH92)
inactive: [1] -0.055 | [2] 0.032 | [4] 0.093 | [5] -0.011

MLH1 (UniProt P40692)
inactive: [1] 0.192 | [2] 0.007 | [4] -0.109 | [5] -0.065

MRPL10 isoform 2 (UniProt Q7Z7H8)
inactive: [1] 0.03 | [2] -0.107 | [3] -0.023 | [4] 0.076 | [5] -0.03

MINDY2 (UniProt Q8NBR6)
inactive: [2] 0.12 | [4] 0.022 | [5] 0.126

MLEC (UniProt Q14165)
inactive: [1] 0.046 | [2] 0.009 | [3] 0.018 | [4] -0.009 | [5] -0.021

MLYCD (UniProt O95822)
inactive: [1] -0.165 | [2] 0.072 | [3] 0.065 | [4] -0.05 | [5] 0.01

MIER3 isoform 2 (UniProt Q7Z3K6)
inactive: [3] -0.043
